Experimental data published in article PMC2702278.
These are yes or no findings as the source states them, for the method shown. In cells and extracts the contact can be indirect. A yes stands for co-enrichment or nearness to the bait. Other partners may have been found.

By UniProt entry, the sequences of proteins in these tests, tags left out. Where a name states a change or a piece, a line headed by the entry shows the natural chain unless it says otherwise.
UniProt Q96B97: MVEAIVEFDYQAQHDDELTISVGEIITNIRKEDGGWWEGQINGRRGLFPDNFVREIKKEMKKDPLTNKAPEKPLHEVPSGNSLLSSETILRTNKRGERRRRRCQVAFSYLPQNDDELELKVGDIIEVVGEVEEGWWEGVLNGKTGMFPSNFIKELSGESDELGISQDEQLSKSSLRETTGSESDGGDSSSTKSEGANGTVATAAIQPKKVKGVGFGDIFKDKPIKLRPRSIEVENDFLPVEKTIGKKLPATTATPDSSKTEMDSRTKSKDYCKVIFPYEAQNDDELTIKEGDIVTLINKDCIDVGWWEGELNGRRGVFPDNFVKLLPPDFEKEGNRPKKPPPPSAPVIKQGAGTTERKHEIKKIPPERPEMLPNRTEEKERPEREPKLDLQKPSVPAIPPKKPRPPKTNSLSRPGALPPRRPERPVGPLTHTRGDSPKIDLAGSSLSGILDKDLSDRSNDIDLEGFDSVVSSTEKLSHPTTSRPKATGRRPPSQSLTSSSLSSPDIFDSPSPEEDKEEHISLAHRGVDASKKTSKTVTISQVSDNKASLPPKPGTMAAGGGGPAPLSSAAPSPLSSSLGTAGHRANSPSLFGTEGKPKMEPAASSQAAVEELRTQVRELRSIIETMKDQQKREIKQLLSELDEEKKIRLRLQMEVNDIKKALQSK

Key:
Assay in all cases: affinity purification with mass spectrometry; GST-fusion SH3 domain (about 10 μg on 40 μl Glutathione Sepharose 4B) incubated 4 h at 4°C with HeLa lysate pre-cleared on GST beads; 20 mM Tris pH 7.5, 150 mM NaCl, 5 mM EDTA, 5% glycerol, 0.5% Triton X-100 (washes 0.1%); SDS-PAGE, in-gel trypsin digestion, LC-MS/MS; hits also found with GST alone removed; only the target purified
[1] = biological target: GST-fusion SH3A domain of Ruk/CIN85 (UniProt Q96B97)
[2] = biological target: GST-fusion SH3B domain of Ruk/CIN85 (UniProt Q96B97)
[3] = biological target: GST-fusion SH3C domain of Ruk/CIN85 (UniProt Q96B97)

Measured: binding

B1: Septin 11 (protein, UniProt Q9NVA2 1-429)
chain: MAVAVGRPSNEELRNLSLSGHVGFDSLPDQLVNKSTSQGFCFNILCVGETGIGKSTLMDTLFNTKFESDPATHNEPGVRLKARSYELQESNVRLKLTIVDTVGFGDQINKDDSYKPIVEYIDAQFEAYLQEELKIKRSLFNYHDTRIHACLYFIAPTGHSLKSLDLVTMKKLDSKVNIIPIIAKADTIAKNELHKFKSKIMSELVSNGVQIYQFPTDEETVAEINATMSVHLPFAVVGSTEEVKIGNKMAKARQYPWGVVQVENENHCDFVKLREMLIRVNMEDLREQTHTRHYELYRRCKLEEMGFKDTDPDSKPFSLQETYEAKRNEFLGELQKKEEEMRQMFVMRVKEKEAELKEAEKELHEKFDLLKRTHQEEKKKVEDKKKELEEEVNNFQKKKAAAQLLQSQAQQSGAQQTKKDKDKKNASFT
binds: all assays above

B2: Septin 6 (protein, UniProt Q14141 1-434)
chain: MAATDIARQVGEGCRTVPLAGHVGFDSLPDQLVNKSVSQGFCFNILCVGETGLGKSTLMDTLFNTKFEGEPATHTQPGVQLQSNTYDLQESNVRLKLTIVSTVGFGDQINKEDSYKPIVEFIDAQFEAYLQEELKIRRVLHTYHDSRIHVCLYFIAPTGHSLKSLDLVTMKKLDSKVNIIPIIAKADAISKSELTKFKIKITSELVSNGVQIYQFPTDDESVAEINGTMNAHLPFAVIGSTEELKIGNKMMRARQYPWGTVQVENEAHCDFVKLREMLIRVNMEDLREQTHTRHYELYRRCKLEEMGFKDTDPDSKPFSLQETYEAKRNEFLGELQKKEEEMRQMFVQRVKEKEAELKEAEKELHEKFDRLKKLHQDEKKKLEDKKKSLDDEVNAFKQRKTAAELLQSQGSQAGGSQTLKRDKEKKNNPWLCTE
binds: all assays above

B3: Septin 10 (protein, UniProt Q9P0V9 1-454)
chain: MASSEVARHLLFQSHMATKTTCMSSQGSDDEQIKRENIRSLTMSGHVGFESLPDQLVNRSIQQGFCFNILCVGETGIGKSTLIDTLFNTNFEDYESSHFCPNVKLKAQTYELQESNVQLKLTIVNTVGFGDQINKEESYQPIVDYIDAQFEAYLQEELKIKRSLFTYHDSRIHVCLYFISPTGHSLKTLDLLTMKNLDSKVNIIPVIAKADTVSKTELQKFKIKLMSELVSNGVQIYQFPTDDDTIAKVNAAMNGQLPFAVVGSMDEVKVGNKMVKARQYPWGVVQVENENHCDFVKLREMLICTNMEDLREQTHTRHYELYRRCKLEEMGFTDVGPENKPVSVQETYEAKRHEFHGERQRKEEEMKQMFVQRVKEKEAILKEAERELQAKFEHLKRLHQEERMKLEEKRRLLEEEIIAFSKKKATSEIFHSQSFLATGSNLRKDKDRKNSNFL
binds: all assays above

B4: Septin 7 (protein, UniProt Q16181 1-437)
chain: MSVSARSAAAEERSVNSSTMVAQQKNLEGYVGFANLPNQVYRKSVKRGFEFTLMVVGESGLGKSTLINSLFLTDLYSPEYPGPSHRIKKTVQVEQSKVLIKEGGVQLLLTIVDTPGFGDAVDNSNCWQPVIDYIDSKFEDYLNAESRVNRRQMPDNRVQCCLYFIAPSGHGLKPLDIEFMKRLHEKVNIIPLIAKADTLTPEECQQFKKQIMKEIQEHKIKIYEFPETDDEEENKLVKKIKDRLPLAVVGSNTIIEVNGKRVRGRQYPWGVAEVENGEHCDFTILRNMLIRTHMQDLKDVTNNVHYENYRSRKLAAVTYNGVDNNKNKGQLTKSPLAQMEEERREHVAKMKKMEMEMEQVFEMKVKEKVQKLKDSEAELQRRHEQMKKNLEAQHKELEEKRRQFEDEKANWEAQQRILEQQNSSRTLEKNKKKGKIF
binds: all assays above

B5: Septin 8 (protein, UniProt Q92599 1-483)
chain: MAATDLERFSNAEPEPRSLSLGGHVGFDSLPDQLVSKSVTQGFSFNILCVGETGIGKSTLMNTLFNTTFETEEASHHEACVRLRPQTYDLQESNVQLKLTIVDAVGFGDQINKDESYRPIVDYIDAQFENYLQEELKIRRSLFDYHDTRIHVCLYFITPTGHSLKSLDLVTMKKLDSKVNIIPIIAKADTISKSELHKFKIKIMGELVSNGVQIYQFPTDDEAVAEINAVMNAHLPFAVVGSTEEVKVGNKLVRARQYPWGVVQVENENHCDFVKLREMLIRVNMEDLREQTHSRHYELYRRCKLEEMGFQDSDGDSQPFSLQETYEAKRKEFLSELQRKEEEMRQMFVNKVKETELELKEKERELHEKFEHLKRVHQEEKRKVEEKRRELEEETNAFNRRKAAVEALQSQALHATSQQPLRKDKDKKNRSDIGAHQPGMSLSSSKVMMTKASVEPLNCSSWWPAIQCCSCLVRDATWREGFL
binds: all assays above

B6: Vps37B (protein, UniProt Q9H9H4 1-285)
chain: MAGAGSEARFAGLSLVQLNELLEDEGQLTEMVQKMEETQNVQLNKEMTLASNRSLAEGNLLYQPQLDTLKARLTQKYQELQVLFEAYQIKKTKLDRQSSSASLETLLALLQAEGAKIEEDTENMAEKFLDGELPLDSFIDVYQSKRKLAHMRRVKIEKLQEMVLKGQRLPQALAPLPPRLPELAPTAPLPYPAPEASGPPAVAPRRIPPPPPPVPAGRLATPFTAAMSSGQAVPYPGLQCPPLPPRVGLPTQQGFSSQFVSPYPPPLPQRPPPRLPPHQPGFILQ
binds: all assays above

B7: SH3D19 (protein, UniProt Q5HYK7 1-790)
chain: MNIMNTEQSQNSIVSRIKVFEGQTNIETSGLPKKPEITPRSLPPKPTVSSGKPSVAPKPAANRASGEWDSGTENRLKVTSKEGLTPYPPLQEAGSIPVTKPELPKKPNPGLIRSVNPEIPGRGPLAESSDSGKKVPTPAPRPLLLKKSVSSENPTYPSAPLKPVTVPPRLAGASQAKAYKSLGEGPPANPPVPVLQSKPLVDIDLISFDDDVLPTPSGNLAEESVGSEMVLDPFQLPAKTEPIKERAVQPAPTRKPTVIRIPAKPGKCLHEDPQSPPPLPAEKPIGNTFSTVSGKLSNVERTRNLESNHPGQTGGFVRVPPRLPPRPVNGKTIPTQQPPTKVPPERPPPPKLSATRRSNKKLPFNRSSSDMDLQKKQSNLATGLSKAKSQVFKNQDPVLPPRPKPGHPLYSKYMLSVPHGIANEDIVSQNPGELSCKRGDVLVMLKQTENNYLECQKGEDTGRVHLSQMKIITPLDEHLRSRPNDPSHAQKPVDSGAPHAVVLHDFPAEQVDDLNLTSGEIVYLLEKIDTDWYRGNCRNQIGIFPANYVKVIIDIPEGGNGKRECVSSHCVKGSRCVARFEYIGEQKDELSFSEGEIIILKEYVNEEWARGEVRGRTGIFPLNFVEPVEDYPTSGANVLSTKVPLKTKKEDSGSNSQVNSLPAEWCEALHSFTAETSDDLSFKRGDRIQILERLDSDWCRGRLQDREGIFPAVFVRPCPAEAKSMLAIVPKGRKAKALYDFRGENEDELSFKAGDIITELESVDDDWMSGELMGKSGIFPKNYIQFLQIS
binds: all assays above
